Source: PubChem BioAssay AID1508597 (Cure First, 2020)
This is a random part of the about 2,100 reagents, in one setting of the screen. 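Calls flag viability under 80% in either arm, not effects specific to rucaparib; the reference for percent is not stated.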 No sequences are given here. The record does not give: the 100% reference.

- Aim: 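Genes whose silencing sensitises or protects ovarian cancer cells against rucaparib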 (primary screen)
- System: human ovarian carcinoma lines grown from tumours: OCI-P5x (papillary serous) and OCI-C5x (clear cell)
- Reagents: siRNA pool against human genes, 1.25 pmol siRNA per well
- Duration: 72 h or 96 h, depending on the cell culture
- Conditions: rucaparib 20 µM (about IC30) or vehicle, present until read-out
- Rucaparib or vehicle: Vehicle
- Cell line: OCI-C5x (clear cell)
- Read-out: 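Luminescent ATP-based viability assay read 72 or 96 h after transfection, depending on culture, given as normalised percent viability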
- Direction: viability, normalised: higher = more viable cells remaining
- Rule for the call: 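Active when normalised viability falls below 80 percent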
- Meaning of the calls: active = viability under 80%; inactive = viability 80% or more

gene symbol	technical replicate	viability, normalised (%)	Call
SPOCK2	1	53.8	active
SPOCK2	2	45.7	active
SPOCK2	3	47.1	active
PLCD4 (phospholipase C delta 4)	1	60.7	active
PLCD4 (phospholipase C delta 4)	2	51.2	active
PLCD4 (phospholipase C delta 4)	3	61.9	active
CARD14 (caspase recruitment domain family member 14)	1	47.5	active
CARD14 (caspase recruitment domain family member 14)	2	45	active
CARD14 (caspase recruitment domain family member 14)	3	34.8	active
ZFYVE9 (zinc finger FYVE-type containing 9)	1	75.4	active
ZFYVE9 (zinc finger FYVE-type containing 9)	2	57	active
ZFYVE9 (zinc finger FYVE-type containing 9)	3	69	active
DNAJC1 (DnaJ heat shock protein family (Hsp40) member C1)	1	45.8	active
DNAJC1 (DnaJ heat shock protein family (Hsp40) member C1)	2	44.3	active
DNAJC1 (DnaJ heat shock protein family (Hsp40) member C1)	3	37.5	active
MIER3 (MIER family member 3)	1	55.2	active
MIER3 (MIER family member 3)	2	65.3	active
MIER3 (MIER family member 3)	3	56.7	active
RAB32 (RAB32, member RAS oncogene family)	1	63.5	active
RAB32 (RAB32, member RAS oncogene family)	2	72.3	active
RAB32 (RAB32, member RAS oncogene family)	3	50.2	active
DDX60L (DExD/H-box 60 like)	1	45.8	active
DDX60L (DExD/H-box 60 like)	2	50.5	active
DDX60L (DExD/H-box 60 like)	3	39.6	active
RCOR1 (REST corepressor 1)	1	35.5	active
RCOR1 (REST corepressor 1)	2	30.5	active
RCOR1 (REST corepressor 1)	3	34.4	active
HMG20B (high mobility group 20B)	1	52.6	active
HMG20B (high mobility group 20B)	2	44.6	active
HMG20B (high mobility group 20B)	3	65.2	active
EPHA7 (EPH receptor A7)	1	79.9	active
EPHA7 (EPH receptor A7)	2	64.5	active
EPHA7 (EPH receptor A7)	3	89.1	inactive
WIZ (WIZ zinc finger)	1	53.7	active
WIZ (WIZ zinc finger)	2	70.3	active
WIZ (WIZ zinc finger)	3	57.9	active

In a second layout: entries from further up
EPHA7 (EPH receptor A7), technical replicate 1
- viability, normalised (%): 79.9
- Call: active

EPHA7 (EPH receptor A7), technical replicate 2
- viability, normalised (%): 64.5
- Call: active

EPHA7 (EPH receptor A7), technical replicate 3
- viability, normalised (%): 89.1
- Call: inactive

WIZ (WIZ zinc finger), technical replicate 1
- viability, normalised (%): 53.7
- Call: active

WIZ (WIZ zinc finger), technical replicate 2
- viability, normalised (%): 70.3
- Call: active

Continued:
gene symbol	technical replicate	viability, normalised (%)	Call
ALDOA (aldolase, fructose-bisphosphate A)	1	32.7	active
ALDOA (aldolase, fructose-bisphosphate A)	2	32.6	active
ALDOA (aldolase, fructose-bisphosphate A)	3	27	active
MINK1 (misshapen like kinase 1)	1	42.4	active
MINK1 (misshapen like kinase 1)	2	49.5	active
MINK1 (misshapen like kinase 1)	3	35.2	active
SERPINE2 (serpin family E member 2)	1	38.2	active
SERPINE2 (serpin family E member 2)	2	71.8	active
SERPINE2 (serpin family E member 2)	3	53.7	active
UBTF (upstream binding transcription factor)	1	66	active
UBTF (upstream binding transcription factor)	2	56	active
UBTF (upstream binding transcription factor)	3	53.7	active
ZNF384 (zinc finger protein 384)	1	63.7	active
ZNF384 (zinc finger protein 384)	2	58.1	active
ZNF384 (zinc finger protein 384)	3	49.7	active
NCOA2 (nuclear receptor coactivator 2)	1	43.8	active
NCOA2 (nuclear receptor coactivator 2)	2	38.4	active
NCOA2 (nuclear receptor coactivator 2)	3	39.6	active
CHD6 (chromodomain helicase DNA binding protein 6)	1	30.2	active
CHD6 (chromodomain helicase DNA binding protein 6)	2	55.2	active
CHD6 (chromodomain helicase DNA binding protein 6)	3	41.7	active
